# Measurements from PMC9385634.
# By UniProt entry, the sequences of proteins in these tests, tags left out.
# UniProt P35222: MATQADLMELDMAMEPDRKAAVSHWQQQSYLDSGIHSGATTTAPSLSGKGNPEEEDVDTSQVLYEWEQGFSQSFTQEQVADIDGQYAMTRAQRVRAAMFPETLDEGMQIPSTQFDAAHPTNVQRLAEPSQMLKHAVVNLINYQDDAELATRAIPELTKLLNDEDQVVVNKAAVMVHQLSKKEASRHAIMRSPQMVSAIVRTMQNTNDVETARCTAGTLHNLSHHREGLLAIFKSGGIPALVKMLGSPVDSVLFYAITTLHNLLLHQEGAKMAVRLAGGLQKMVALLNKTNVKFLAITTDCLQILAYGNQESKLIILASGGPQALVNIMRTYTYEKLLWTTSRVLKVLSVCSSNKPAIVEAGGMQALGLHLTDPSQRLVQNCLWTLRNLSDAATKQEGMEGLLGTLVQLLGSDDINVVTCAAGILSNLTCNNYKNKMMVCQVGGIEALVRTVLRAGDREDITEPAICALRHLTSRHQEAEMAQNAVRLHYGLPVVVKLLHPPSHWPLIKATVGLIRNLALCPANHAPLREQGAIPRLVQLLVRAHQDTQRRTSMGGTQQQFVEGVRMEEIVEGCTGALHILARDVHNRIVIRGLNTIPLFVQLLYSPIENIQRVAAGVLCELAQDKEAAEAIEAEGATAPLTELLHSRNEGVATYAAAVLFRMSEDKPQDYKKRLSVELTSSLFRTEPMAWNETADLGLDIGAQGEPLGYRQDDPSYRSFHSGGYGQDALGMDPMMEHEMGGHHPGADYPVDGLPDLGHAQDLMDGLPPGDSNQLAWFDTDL
# No constants are given. Whether binding was seen depends on the method and setting. For part of these data: In cells and extracts the contact can be indirect. Some entries that bind do so weakly or less than the wild type. For part of these data: Where a sequence is shown, tags or fusion partners need not be part of it.
# B1: Forkhead Box M1 (FOXM1), endogenous in GBM tumorspheres (protein, UniProt Q08050 1-763)
# chain: MKTSPRRPLILKRRRLPLPVQNAPSETSEEEPKRSPAQQESNQAEASKEVAESNSCKFPAGIKIINHPTMPNTQVVAIPNNANIHSIITALTAKGKESGSSGPNKFILISCGGAPTQPPGLRPQTQTSYDAKRTEVTLETLGPKPAARDVNLPRPPGALCEQKRETCADGEAAGCTINNSLSNIQWLRKMSSDGLGSRSIKQEMEEKENCHLEQRQVKVEEPSRPSASWQNSVSERPPYSYMAMIQFAINSTERKRMTLKDIYTWIEDHFPYFKHIAKPGWKNSIRHNLSLHDMFVRETSANGKVSFWTIHPSANRYLTLDQVFKPLDPGSPQLPEHLESQQKRPNPELRRNMTIKTELPLGARRKMKPLLPRVSSYLVPIQFPVNQSLVLQPSVKVPLPLAASLMSSELARHSKRVRIAPKVLLAEEGIAPLSSAGPGKEEKLLFGEGFSPLLPVQTIKEEEIQPGEEMPHLARPIKVESPPLEEWPSPAPSFKEESSHSWEDSSQSPTPRPKKSYSGLRSPTRCVSEMLVIQHRERRERSRSRRKQHLLPPCVDEPELLFSEGPSTSRWAAELPFPADSSDPASQLSYSQEVGGPFKTPIKETLPISSTPSKSVLPRTPESWRLTPPAKVGGLDFSPVQTSQGASDPLPDPLGLMDLSTTPLQSAPPLESPQRLLSSEPLDLISVPFGNSSPSDIDVPKPGSPEPQVSGLAANRSLTEGLVLDTMNDSLSKILLDISFPGLDEDPLGPDNINWSQFIPELQ
# B2: Flag-tagged FOXM1 (protein, UniProt Q08050 1-763)
# chain: B1 chain
# B3: FOXM1 used in the SPR analysis (protein, UniProt Q08050 1-763)
# chain: B1 chain
# Columns and labels:
# [1] = biological target: β-catenin (CTNNB1), endogenous in GBM tumorspheres (human (endogenous in patient-derived GBM tumorspheres)) (UniProt P35222); assay: co-IP; lysates of GBM tumorspheres treated with DFS for 72 h or untreated; anti-FOXM1 or anti-β-catenin antibody overnight at 4 °C, protein A/G beads, washed with PBST; immunoblot of the endogenous proteins
# [2] = biological target: GST-tagged β-catenin (UniProt P35222); assay: pull-down; purified GST-β-catenin on glutathione agarose beads with Flag-FOXM1 lysate from TS15-88 and TS13-64, binding buffer, about 1 h at 4 °C; DFS 5 and 10 μM; anti-Flag immunoblot; only the target purified
# [3] = biological target: recombinant human β-catenin protein (human) (UniProt P35222); assay: SPR; recombinant human β-catenin and FOXM1 with DFS 12.5 to 50 μM; who was immobilised is not stated
binder,measurement,setting,value
B1,binding,[1],binds
B2,binding,[2],binds
B3,binding,[3],binds
